Literature values in PMC8920097, “Prediction of hERG inhibition of drug discovery compounds using biomimetic HPLC measurements” (ADMET & DMPK, 2021).

System: hERG channel
Settings: literature values, mean where several reported, molar; cited from earlier work

CN1C2CCCC1CC(NC(=O)c1nn(C)c3ccccc13)C2 (stereo not shown) [Granisetron]
hERG pIC50: 4.65
